Primary screen of a compound library

Protein sequences, listed by entry. Tags and fused reporters are not part of them. Residues count along the entry.
UniProt Q4DA54, 1-478: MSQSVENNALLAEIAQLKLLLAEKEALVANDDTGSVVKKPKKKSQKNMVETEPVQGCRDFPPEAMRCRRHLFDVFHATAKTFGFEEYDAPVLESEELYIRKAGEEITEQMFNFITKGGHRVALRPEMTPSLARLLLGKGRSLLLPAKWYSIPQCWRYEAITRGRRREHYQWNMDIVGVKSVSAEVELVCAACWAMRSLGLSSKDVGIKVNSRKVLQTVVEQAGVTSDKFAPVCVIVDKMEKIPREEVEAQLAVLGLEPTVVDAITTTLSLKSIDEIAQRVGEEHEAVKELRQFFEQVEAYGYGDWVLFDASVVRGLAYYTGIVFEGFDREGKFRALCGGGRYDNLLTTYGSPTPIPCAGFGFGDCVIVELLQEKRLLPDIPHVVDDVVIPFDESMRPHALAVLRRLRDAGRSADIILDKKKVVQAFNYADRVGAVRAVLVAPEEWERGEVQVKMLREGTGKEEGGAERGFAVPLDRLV
UniProt A4I591, 1-473: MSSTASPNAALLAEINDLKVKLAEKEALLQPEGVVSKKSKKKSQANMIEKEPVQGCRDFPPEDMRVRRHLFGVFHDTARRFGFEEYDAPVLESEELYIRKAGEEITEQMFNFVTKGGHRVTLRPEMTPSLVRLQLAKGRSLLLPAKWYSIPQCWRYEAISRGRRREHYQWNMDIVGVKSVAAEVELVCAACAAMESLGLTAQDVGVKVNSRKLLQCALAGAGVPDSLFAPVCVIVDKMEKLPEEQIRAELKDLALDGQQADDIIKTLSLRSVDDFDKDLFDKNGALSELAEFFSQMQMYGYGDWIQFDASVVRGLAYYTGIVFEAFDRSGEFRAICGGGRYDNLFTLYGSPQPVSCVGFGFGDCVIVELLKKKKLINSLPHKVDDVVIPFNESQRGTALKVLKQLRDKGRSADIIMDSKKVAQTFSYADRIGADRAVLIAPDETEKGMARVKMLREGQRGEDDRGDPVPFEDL
UniProt P9WPC5, whole entry: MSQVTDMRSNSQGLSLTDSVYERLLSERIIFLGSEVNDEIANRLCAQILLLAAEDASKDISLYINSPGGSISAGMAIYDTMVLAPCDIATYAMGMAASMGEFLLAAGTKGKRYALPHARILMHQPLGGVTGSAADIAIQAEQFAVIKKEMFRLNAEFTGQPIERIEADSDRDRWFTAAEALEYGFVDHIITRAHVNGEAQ
UniProt P9WPC3, whole entry partner: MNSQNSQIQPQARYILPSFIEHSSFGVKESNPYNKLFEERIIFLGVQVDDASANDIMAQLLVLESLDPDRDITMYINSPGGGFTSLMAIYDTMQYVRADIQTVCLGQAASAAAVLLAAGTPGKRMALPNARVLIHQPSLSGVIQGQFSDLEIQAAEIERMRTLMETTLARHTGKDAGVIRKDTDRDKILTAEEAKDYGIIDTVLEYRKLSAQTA

Source: ChEMBL document CHEMBL3988442, “University of Dundee, Small-Polar-MMV Screening Library” (2021).

The filed quantity is “Percent Effect” (%). The record does not define 0% and 100%; most values in the screen are far below 50% and negative numbers occur (in some assays of this library far below -100). This is an unselected part of the compounds tested. Two or more numbers in one place are separate tests of the same structure; such repeats can differ widely. A dash means the value is not listed here; it may have been measured.

A: 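Assay of Toxoplasma gondii numbers, read through their beta-galactosidase reporter with a colour substrate. Concentration: 10 µM. Higher reads as fewer parasites (inferred from which compounds were picked for retests). About 67,000 compounds were tested under these conditions; 0.38% (about 260) showed 50% or more at least once.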
B: 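Cell assay of Leishmania donovani living inside macrophages; the read-out is not stated. Compounds at 30 µM. Direction is inferred from retests: higher values go with stronger inhibition. Size under these conditions: about 69,000 compounds, about 1,000 of them at 50% or above in at least one test.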
C: 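Histidine-tRNA ligase, Trypanosoma cruzi CL Brener (UniProt Q4DA54). Enzyme assay of histidyl-tRNA synthetase; the read-out is not stated. Concentration: 30 µM. Higher reads as stronger inhibition (inferred: compounds with an IC50 in retests scored well above the rest). Size under these conditions: about 69,000 compounds, about 31 of them at 50% or above in at least one test.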
D: 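Histidine-tRNA ligase, Leishmania infantum (UniProt A4I591). Enzyme assay of histidyl-tRNA synthetase; the read-out is not stated. Concentration: 30 µM. Direction is inferred from retests: higher values go with stronger inhibition. The assay is labelled LdHisRS but filed under L. infantum. Of about 69,000 compounds tested this way, about 410 (0.6%) reached 50% or more in at least one test.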
E: 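ClpP1P2, Mycobacterium tuberculosis (UniProt P9WPC5 and UniProt P9WPC3). Protease assay of ClpP1P2, read by the AMC dye that it sets free. Compounds at 50 µM. Direction is inferred from only a few compounds that gave an IC50; most scored high, so higher reads as stronger inhibition. Most other retested compounds had strongly negative values. About 69,000 compounds were tested under these conditions; 0.015% (about 10) showed 50% or more at least once.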
F: 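Whole-parasite assay of Trypanosoma brucei over 72 hours; the read-out is not stated. Compounds at 30 µM. Higher reads as stronger inhibition (inferred: compounds with an IC50 in retests scored well above the rest). Values scatter widely below zero; nearly all retest evidence comes from the higher of the two concentrations used. About 64,000 compounds were tested under these conditions; 1.5% (about 940) showed 50% or more at least once.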

Compound,A,B,C,D,E,F
CC(C)=CCN1CCN(CCCOc2ccccc2)[C@H]2CS(=O)(=O)C[C@H]21,-,-,3.665%,11.83%,-0.8437%,-
COCc1cnc2n1CCN(C(=O)c1cn(C)c3ccccc13)C2C (stereo unspecified),-7.217%,20.49%,1.508%,9.901%,-4.172%,-12.79%
CC(C)=CCCC1(C)C=Cc2c(cc(C)n(CC(=O)O)c2=O)O1 (stereo unspecified),6.821%,3.628%,8.046%,8.571%,-27.59%,-33.17%
CS(=O)(=O)N1CCC(N2CCCC2c2ccccn2)CC1 (stereo unspecified),-3.15%,14.34%,10.2%,17.14%,-3.203%,0.1795%
CN(C)C(=O)[C@H]1CCS(=O)(=O)[C@@H]2CN(c3ncc(F)cn3)C[C@H]12,-,-,-5.528%,-7.921%,-7.452%,-
CCOC(=O)[C@H]1CNC[C@@H]1C(=O)OCC,-2.632%,6.525%,10.42%,10.42%,-4.59%,-
NC(=O)CN1CC2(CCC1=O)CCN(Cc1cc(F)cc(F)c1)CC2,5.019%,23.72%,7.821%,5.208%,-2.128%,17.25%
CC(c1nc(C(C)(C)C)no1)S(=O)(=O)CC(=O)N1CCCC1 (stereo unspecified),8.794%,22.97%,6.466%,26.58%,-8.435%,8.968%
CC(=O)N(C)c1nc(Cn2nnnc2C(C)(C)C)cs1,-2.97%,11.37%,11.88%,16.67%,17.9%,-22.18%
COC(=O)CC1CN(Cc2c(Cl)ccc3cccnc23)CCO1 (stereo unspecified),-1.079%,7.347%,9.554%,15.49%,-4.145%,-37.11%
COc1cc(F)ccc1C(C(=O)O)N1CCN(C2CCCCC2)CC1 (stereo unspecified),-8.372%,1.153%,7.609%,12.12%,2.94%,-5.269%
O=C(NC1CC1)N1CCc2ccc(=O)n(CCN3CCCC3)c2CC1,-,-,6.452%,15.79%,0.6043%,-
CNc1nc(C)c(C(=O)N2CCC(C(O)Cc3ccccc3)CC2)s1 (stereo unspecified),-11.39%,30.03%,4.478%,15.38%,11.32%,7.14%
CC(=O)NCCCSC1CCN(c2c(F)cccc2F)C1=O (stereo unspecified),-0.9174%,-3.421%,6.627%,6.593%,-5.385%,-43.21%
COCCCC1(CO)CCCN(C(=O)c2cnc(C3CC3)nc2)C1 (stereo unspecified),-18.33%,15.53%,-5.455%,-4.444%,-14.27%,-37.7%
Cc1ccc(CNC(C)c2cc(F)ccc2N2CCN(C)CC2)o1 (stereo unspecified),-0.8323%,29.58%,12.32%,22.37%,-4.909%,46.87%
CCn1c(CC2CCN(C(=O)C3CNCCO3)CC2)nn(C)c1=O (stereo unspecified),-4.39%,-9.405%,5.806%,17.17%,8.282%,0.343%
Cc1cccnc1CNCC1(O)CCCN(Cc2ccc(F)cc2)C1=O (stereo unspecified),3.125%,20.96%,4.959%,22.86%,-24.79%,13.64%
CC(C)c1nc(C2CCCN(C(=O)CCCn3ccnc3)C2)no1 (stereo unspecified),-27.98%,30.47%,6.395%,19.64%,-4.985%,-0.6337%
CCN(CC)CCNC(=O)C(C)OCC(F)(F)F (stereo unspecified),4.327%,-14.08%,2.597%,-5%,-2.815%,-84.27%
COc1ccc(C(N)=O)cc1NCc1ncc(-c2cccs2)o1,5.263%,35.92%,-3.067%,19.75%,-6.196%,-15.35%
COCc1noc(-c2nn(-c3ccc(F)cc3)c3c2CCC3)n1,-2.984%,1.874%,0.6494%,9.677%,0.9873%,19.57%
O=C(O)C(F)(F)F.O=C(O)C(F)(F)F.O=C(O)C(F)(F)F.[H][C@@]12COC[C@]1(CN(C)C)CN(Cc1ccc3ccccc3n1)C2,-1.876%,22.55%,-,-,-,-15.2%
COc1ccccc1OC1(C(=O)O)CCN(c2nccnc2OC)CC1,27.53%,7.448%,-1.961%,12.8%,-26.64%,-23.81%
CCc1c(C)nc(N)nc1NCCSCc1[nH]cnc1C,6.282%,26.16%,2.618%,6.452%,3.112%,-2.495%
CC(C)[C@H](Nc1cc(-c2ccncc2)nc2ccnn12)C(N)=O,-1.186%,10.01%,1.01%,8.197%,-58.99%,-16.27%
CC(=O)Nc1ccc(-n2ccc3nc(N4CCCC4)ncc3c2=O)cc1,-6.336%,-18.46%,1.639%,-1.942%,-1.275%,-28.45%
COCCN1CC[C@]2(CN(Cc3cccnc3)C[C@H]2C)C1=O.O=C(O)C(F)(F)F.O=C(O)C(F)(F)F,-6.683%,3.53%,-,-,-,-47.24%
CC(=O)N(Cc1noc(C)n1)C1CCN(CC2CCCC2)C1 (stereo unspecified),-7.985%,4.958%,-2.439%,22.89%,11.71%,-19.55%
[H][C@]12CC[C@]([H])(CN(C(=O)CCc3n[nH]c(C)n3)C1)N(CC=C(C)C)C2,-56.87%,40.05%,-,-,-,-
CCOc1ccc(Cl)c(C(=O)NC)n1,-1.33%,10.53%,5.572%,12.04%,-13.6%,-2.459%
CC(C)(C)CN(CCC#N)C(=O)Cc1ccc(-n2cnnn2)cc1,1.233%,22.53%,13.79%,13.39%,-0.1545%,-12.39%
COc1cccc(OCCn2c(C)c(C)oc2=O)c1,1.208%,25.8%,2.4%,18.58%,-0.317%,-36.04%
Cc1nc(C2(O)CCCNCC2)sc1CCOc1ccc(Cl)cc1 (stereo unspecified),-,-,5.946%,16.67%,19.03%,-
c1ccc2oc(CCCN3CCOC(Cn4cccn4)C3)nc2c1 (stereo unspecified),6.911%,26.36%,1.132%,10.67%,4.314%,1.239%
Cl.[H][C@]12CN(C(=O)CC(C)(C)C)[C@]([H])(CN1)C2,-26.23%,2.804%,-,-,-,-5.059%
Cc1cc(C(=O)Nc2cccn(Cc3ccc(F)cc3)c2=O)on1,12.7%,-15.53%,2.212%,84.07%,-12.36%,2.201%
COCc1nn(C)c2c1CCN(Cc1cnn(C)c1)C2.O=C(O)C(F)(F)F,-32.97%,21.31%,-,-,-,-17.3%
Cc1n[nH]c(C)c1CCC(=O)N1CCc2c(nc[nH]c2=O)C1,-5.28%,-68.65%,10.45%,3.614%,-3.676%,-44.35%
O=C(O)C(F)(F)F.O=C(O)C(F)(F)F.[H][C@@]12COC[C@]1([H])[C@@H](OCCN(C)C)CN2Cc1ccoc1,-3.042%,-22.1%,-,-,-,-14.32%
CN(Cc1nnc(C2CC2)o1)C1CCN(CCCc2cnn(C)c2)C1 (stereo unspecified),2.591%,5.418%,4.906%,20.27%,11.3%,-6.223%
CC(C)c1nnc(NC(=O)N(C)Cc2ccncc2)s1,11.34%,15.58%,13.13%,20.21%,16.16%,0.8719%
Cl.Clc1ccc(-c2ccc(C3CNCCO3)nc2)cc1 (stereo unspecified),24.16%,46.65% & 84.25%,-,-,-,98.64%
O=C(O)[C@@H]1CN(C2CCOCC2)C[C@H]1C1CC1,-3.437%,8.726%,3.279%,-7.018%,-8.002%,-61.47%

For reference, 5 entries once more:

Compound,A,B,C,D,E,F
CC(C)c1nnc(NC(=O)N(C)Cc2ccncc2)s1,11.34%,15.58%,13.13%,20.21%,16.16%,0.8719%
CC(C)(C)CN(CCC#N)C(=O)Cc1ccc(-n2cnnn2)cc1,1.233%,22.53%,13.79%,13.39%,-0.1545%,-12.39%
COc1cccc(OCCn2c(C)c(C)oc2=O)c1,1.208%,25.8%,2.4%,18.58%,-0.317%,-36.04%
COc1ccccc1OC1(C(=O)O)CCN(c2nccnc2OC)CC1,27.53%,7.448%,-1.961%,12.8%,-26.64%,-23.81%
COC(=O)CC1CN(Cc2c(Cl)ccc3cccnc23)CCO1 (stereo unspecified),-1.079%,7.347%,9.554%,15.49%,-4.145%,-37.11%